# Literature values as cited in paper PMC6450621, “Changes of drug pharmacokinetics mediated by downregulation of kidney organic cation transporters Mate1 and Oct2 in a rat model of hyperuricemia” (PLoS ONE, 2019).
# Settings: cephalexin; used for control and hyperuricemic rats; cited from earlier work
structure (smiles),measurement,value
"CC1=C(C(=O)O)N2C(=O)[C@@H](NC(=O)[C@H](N)c3ccccc3)[C@H]2SC1 [Cephalexin, cephalexin]",fu,0.82 [28]
